Reference: paper PMC12670160, “A drug-repurposing screen of FDA- and EMA-approved drugs identifies two NF-κB inhibitors active against eumycetoma” (Journal of Antimicrobial Chemotherapy, 2025)
Structures can show the parent of a compound that is named as a salt. Hit rate of the full screen: of about 5,300 compounds, about 130 (2.5%) showed an effect of 50% or more. The list shows a part of the results.

The compounds below were run on M. mycetomatis strain mm55. Details: primary screen, metabolic activity vs growth control; 96 h, 2 µM; inhibitor.

SMILES	% viability
Cc1ccc(NC(=O)c2ccc(CN3CCC(N(C)C)C3)c(C(F)(F)F)c2)cc1Nc1ncc(-c2cncnc2)cn1 (stereo not shown) [ONC0004625, bafetinib inno406]	85.25%
CCCC(=O)Nc1cccc(NC(=O)c2ccccc2Br)c1 [ONC0001474, ml161]	73.73%
O=c1cccc2n1C[C@@H]1CNC[C@H]2C1 [ONC0003003, cytisine]	81.48%
CN(C(=O)Cc1ccccc1)[C@H](CN1CCCC1)c1ccccc1 [ONC0002640, nmppp]	98.85%
Cc1ccc(C(C)C)c(O)c1 [ONC0003708, thymol]	115.4%
NCC1(CC(=O)O)CCCCC1 [ONC0004013, gabapentin]	72.23%
CCOC(=O)N1CSCC1C(=O)O (stereo not shown) [ONC0002766, 3ethyl thiazolidine34dicarboxylate]	97.19%
O=C1CC2(CCCC2)CC(=O)N1CCCCNCC1COc2ccccc2O1 (stereo not shown) [ONC0001554, mdl72832]	112.9%
N=C(N)N=Nc1ccc(NNC(=N)S)cc1 [ONC0002980, ambazone]	75.31%
Fc1ccc(C(OCCN2CCN(C/C=C/c3ccccc3)CC2)c2ccc(F)cc2)cc1 [ONC0001678, gbr13069]	64.41%
CC[C@H](C)C(=O)O[C@H]1C[C@H](O)C=C2C=C[C@H](C)[C@H](CC[C@@H](O)C[C@@H](O)CC(=O)O)[C@H]21 [ONC0004047, pravastatin sodium]	89.55%
Cc1cccn2c(=O)c(-c3nnn[nH]3)cnc12 [ONC0001181, pemirolast potassium]	82.69%
CN1CC(=O)N=C1NC(=O)Nc1cccc(Cl)c1 [ONC0001340, fenobam]	110.6%
CCOCCn1c(N2CCCN(C)CC2)nc2ccccc21 [ONC0002778, emedastine difumarate]	106%
Clc1cccc(-n2nnnc2NCc2ccccc2Oc2ccccn2)c1Cl [ONC0001456, a839977]	77.49%
CC1(C)CC(=O)C(C2C3=C(CC(C)(C)CC3=O)Oc3ccccc32)C(=O)C1 (stereo not shown) [ONC0001684, l152804]	75.84%
O=S1(=O)CCN(CN2CCS(=O)(=O)NC2)CN1 [ONC0002116, taurolidine]	83.67%
Nc1nc(Nc2ccccc2)nc2c1ncn2[C@@H]1O[C@H](CO)[C@@H](O)[C@H]1O [ONC0001740, cv1808]	67.53%
N=C(N)Nc1ccc(Cl)cc1 [ONC0000368, 4chlorophenylguanidine]	70.79%
Cc1nc(C)c(C)nc1C [ONC0003449, tetramethylpyrazine]	70.83%
Cl.O=C(c1ccc(-c2ccc(Cl)cc2)o1)N(Cc1ccccn1)c1ccc(N2CCNCC2)cc1 [ONC0002178, mk2in1 hydrochloride]	65.24%
O=C1c2cc(Cl)ccc2OC2CCON12 (stereo not shown) [ONC0003843, seclazone]	64.53%

SMILES	% viability
CCNC(=O)CCC(N)C(=O)O (stereo not shown) [ONC0003472, ltheanine]	73.98%
Cc1ccc(S(=O)(=O)/C=C/C#N)cc1 [bay117082]	112.1%
Nc1ccccc1NC(=O)c1ccc(CNc2nccc(-c3cccnc3)n2)cc1 [ONC0002464, mocetinostat]	89.27%
Cn1nc(-c2ccc(C(F)(F)F)cc2)nc2c(=O)n(C)c(=O)nc1-2 [ONC0001770, walrycin b]	125%
O=[N+]([O-])c1ccc(Cl)c([N+](=O)[O-])c1 [ONC0005611, 24dinitrochlorobenzene]	80.45%
Cc1cccc(C)c1NC(=O)C[N+](C)(C)C [ONC0000104, qx222]	105.9%
c1ccc2c(c1)OC[C@H](CNCCCOc1ccc3c(c1)OCO3)O2 [ONC0002135, osemozotan]	69.13%
O=C(OCCN1CCCCC1)c1c[nH]c2ccccc12 [ONC0002524, sb203186]	63.19%
O=C(CCCN1CCC2(CC1)C(=O)NCN2c1ccccc1)c1ccc(F)cc1 [ONC0000014, spiperone]	87.63%
CC(C)n1c(=O)n(C(=O)NC2CC3CCC(C2)N3C)c2ccccc21 (stereo not shown) [ONC0004172, bimu8 hydrate]	87.83%
Nc1ncc(Cc2ccc(Br)cc2)s1 [ONC0001370, ns19504]	73.87%
Nc1ncnc2c1ncn2[C@@H]1O[C@H](CO)C[C@H]1O [ONC0003004, cordycepin]	108%
O=C(O)c1ccc(NC2OC(CO)C(O)C(O)C2O)cc1 (stereo not shown) [ONC0003638, n4carboxyphenylalphadmannopyranosylamine]	73.46%
CC/C=C(\C(=O)N[C@@H]1C(=O)N2C(C(=O)OCOC(=O)C(C)(C)C)=C(COC(N)=O)CS[C@H]12)c1csc(N)n1 [ONC0003350, cefcapene pivoxil hydrochloride monohydrate]	73.97%
COc1ccc2cc3[n+](cc2c1OC)CCc1cc2c(cc1-3)OCO2 [ONC0003235, berberine chloride]	80.03%
COc1cc2c(cc1Cc1cccc(Cl)c1F)c(=O)c(C(=O)O)cn2[C@H](CO)C(C)C [ONC0004910, elvitegravir gs9137]	133.1%
Nc1ncnc2c1ncn2[C@H]1CC[C@@H](CO)O1 [ONC0003689, 23dideoxyadenosine]	49.81%
CC(C)Cc1ccc([C@@H](C)C(=O)NS(C)(=O)=O)cc1 [ONC0001293, reparixin]	54.34%
COc1cc(CN2CCN(c3ccc(F)cc3)CC2)cc(OC)c1OC [ONC0003564, 14fluorophenyl4345trimethoxybenzylpiperazine]	82.72%
COc1cc(C2Oc3ccc(C4Oc5cc(O)cc(O)c5C(=O)C4O)cc3OC2CO)ccc1O (stereo not shown) [ONC0005196, silymarin silybin b]	144.4%
CC(=O)NC[C@H]1CN(c2ccc(N3CCOCC3)c(F)c2)C(=O)O1 [ONC0002450, linezolid]	98.01%
CCCCC1(C2CCCC2)Cc2cc(OCCCC(=O)O)c(Cl)c(Cl)c2C1=O (stereo not shown) [ONC0002519, dcpib]	87.12%

Reformatted with each value named: 2 of the compounds above.
Nc1ccccc1NC(=O)c1ccc(CNc2nccc(-c3cccnc3)n2)cc1 [ONC0002464, mocetinostat]
  % viability: 89.27%
COc1cc(CN2CCN(c3ccc(F)cc3)CC2)cc(OC)c1OC [ONC0003564, 14fluorophenyl4345trimethoxybenzylpiperazine]
  % viability: 82.72%

(continued)

SMILES	% viability
OC[C@H]1O[C@@H](O[C@@H]2[C@H](O)[C@@H](O)[C@H](O[C@H]3[C@H](O)[C@@H](O)C(O)O[C@@H]3CO)O[C@@H]2CO)[C@H](O)[C@@H](O)[C@H]1O (stereo partly shown) [ONC0004130, 4galactosyllactose]	126.3%
Cc1nccn1CC1CCc2c(c3ccccc3n2C)C1=O (stereo not shown) [ONC0000588, ondansetron hydrochloride]	115.3%
CCCCCCOc1ccccc1C(N)=O [ONC0002422, exalamide]	94.69%
CC[C@H](CO)Nc1nc(Nc2cccc(-c3ccccn3)c2)c2ncn(C(C)C)c2n1 [ONC0001534, drf053r]	59.61%
CC1(C)CC(O)CC(C)(C)N1O [ONC0003643, 4hydroxy2266tetramethylpiperidinooxy98free radical]	64.34%
Cc1sc2c(c1C)C(c1ccc(Cl)cc1)=N[C@@H](CC(N)=O)c1nnc(C)n1-2 [ONC0001837, cpi203]	75.28%
CCN(CC)CCNC(=O)c1ccc(N)cc1 [ONC0000458, procainamide hydrochloride]	68.3%
NC[C@H](O)c1ccc(O)c(O)c1 [ONC0000378, norepinephrine tartrate]	51.27%
O[C@H]1[C@H](O)[C@@H](O)CN2CC[C@H](O)[C@H]12 [ONC0001497, castanospermine]	95.87%
CCc1cnc(N2CCC(c3nc(COc4ccc(-n5cnnn5)cc4)cs3)CC2)nc1 [ONC0002453, mbx2982]	124.9%
c1cc(Nc2cc(C3CC3)[nH]n2)nc(Nc2ccc3[nH]cnc3c2)n1 [ONC0003009, apy29]	67.52%
Cn1cc(-c2cnc3ccc4ccc(CS(=O)(=O)NCc5ccccn5)cc4c(=O)c3c2)cn1 [ONC0001114, mk8033]	67.34%
Cc1c(-c2ccc(O)cc2)n(Cc2ccc(OCCN3CCCCCC3)cc2)c2ccc(O)cc12 [ONC0004785, bazedoxifene hcl]	83.71%
C=C[C@]1(C)C[C@@H](OC(=O)CSC(C)(C)CNC(=O)[C@H](N)C(C)C)[C@]2(C)[C@H](C)CC[C@]3(CCC(=O)[C@H]32)[C@@H](C)[C@@H]1O [ONC0004321, valnemulin hcl]	125.1%
CCOC1O[C@H]([C@@H](COCc2ccccc2)OCc2ccccc2)[C@H](OCc2ccccc2)[C@H]1O (stereo partly shown) [ONC0002940, tribenoside]	57.62%
c1cc(CN2CCCCC2)cc(OCCCNc2nc3ccccc3s2)c1 [ONC0000821, zolantidine]	82.97%
CCn1c2ccccc2c2cc(CNC)ccc21 [ONC0000215, phikan083]	69.26%
CCc1cc2c(cc1CC)CC(NC[C@H](O)c1ccc(O)c3[nH]c(=O)ccc13)C2 [ONC0004520, indacaterol maleate]	62.39%
CNCC(O)c1ccc(O)c(O)c1 (stereo not shown) [ONC0004750, dladrenaline]	116.3%
CCOC(=O)Nc1c[n+](N2CCOCC2)no1 [ONC0000636, molsidomine]	75.33%
